# The other results are listed elsewhere or left out.
# B1: pTFF2 (Sus scrofa), P01359 (protein)
# chain: KPAACRCSRQDPKNRVNCGFPGITSDQCFTSGCCFDSQVPGVPWCFKPLPAQESEECVMEVSARKNCGYPGISPEDCAARNCCFSDTIPEVPWCFFPMSVEACHY
# What was measured:
# Assay in all cases: glycan array binding signal (z-score within array); higher = stronger binding
# Conditions in all cases: glycan notation: IUPAC condensed, linker removed
# [1] = molecular target: Fuc(a1-2)Gal(b1-4)GlcNAc(b1-3)Gal(b1-4)GlcNAc(b1-2)Man(a1-3)[Fuc(a1-2)Gal(b1-4)GlcNAc(b1-3)Gal(b1-4)GlcNAc(b1-2)Man(a1-6)]Man(b1-4)GlcNAc(b1-4)GlcNAc
# Method in brief: (§1)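 Glycan array data were curated from 3228 arrays in the Consortium for Functional Glycomics database and kept only where the protein sequence was available. Glycan names were converted to IUPAC-condensed notation, and columns mapping to the same glycan were averaged. The binding signal is a within-array Z-score, averaged across arrays of the same protein sequence at different concentrations or buffers and across linkers. Negative Z-scores can be read as non-binding.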
# [2] = molecular target: Fuc(a1-2)Gal(b1-4)GlcNAc(b1-3)Gal(b1-4)GlcNAc(b1-3)Gal(b1-4)GlcNAc
# Method in brief: as §1
# [3] = molecular target: Fuc(a1-2)Gal(b1-4)GlcNAc(b1-3)GalNAc
# Method in brief: as §1
# [4] = molecular target: Fuc(a1-2)Gal(b1-4)GlcNAc(b1-3)[Fuc(a1-2)Gal(b1-4)GlcNAc(b1-6)]GalNAc
# Method in brief: as §1
# [5] = molecular target: Fuc(a1-2)Gal(b1-4)GlcNAc(b1-3)[Fuc(a1-3)[Gal(b1-4)]GlcNAc(b1-6)]Gal(b1-4)Glc
# Method in brief: as §1
# [6] = molecular target: Fuc(a1-2)Gal(b1-4)GlcNAc(b1-6)GalNAc
# Method in brief: as §1
# [7] = molecular target: Fuc(a1-2)Gal(b1-4)GlcNAc6S
# Method in brief: as §1
# [8] = molecular target: Fuc(a1-2)Gal(b1-4)[Fuc(a1-3)]GlcNAc
# Method in brief: as §1
# [9] = molecular target: Fuc(a1-2)Gal(b1-4)[Fuc(a1-3)]GlcNAc(b1-2)Man(a1-3)[Fuc(a1-2)Gal(b1-4)[Fuc(a1-3)]GlcNAc(b1-2)Man(a1-6)]Man(b1-4)GlcNAc(b1-4)[Fuc(a1-6)]GlcNAc
# Method in brief: as §1
# [10] = molecular target: Fuc(a1-2)Gal(b1-4)[Fuc(a1-3)]GlcNAc(b1-2)[Fuc(a1-2)Gal(b1-4)[Fuc(a1-3)]GlcNAc(b1-4)]Man(a1-3)[Fuc(a1-2)Gal(b1-4)[Fuc(a1-3)]GlcNAc(b1-2)Man(a1-6)]Man(b1-4)GlcNAc(b1-4)GlcNAc
# Method in brief: as §1
# [11] = molecular target: Fuc(a1-2)Gal(b1-4)[Fuc(a1-3)]GlcNAc(b1-3)Gal(b1-4)[Fuc(a1-3)]GlcNAc
# Method in brief: as §1
# [12] = molecular target: Fuc(a1-2)Gal(b1-4)[Fuc(a1-3)]GlcNAc(b1-3)Gal(b1-4)[Fuc(a1-3)]GlcNAc(b1-3)Gal(b1-4)[Fuc(a1-3)]GlcNAc
# Method in brief: as §1
# [13] = molecular target: Fuc(a1-2)Gal(b1-4)[Fuc(a1-3)]GlcNAc(b1-3)GalNAc
# Method in brief: as §1
# [14] = molecular target: Fuc(a1-2)Gal(b1-4)[Fuc(a1-3)]GlcNAc(b1-3)[Neu5Ac(a2-6)Gal(b1-4)GlcNAc(b1-6)]Gal(b1-4)Glc
# Method in brief: as §1
# [15] = molecular target: Fuc(a1-2)Gal3S(b1-4)GlcNAc
# Method in brief: as §1
# [16] = molecular target: Fuc(a1-2)Gal6S(b1-3)GlcNAc
# Method in brief: as §1
# [17] = molecular target: Fuc(a1-2)Gal6S(b1-3)GlcNAc6S
# Method in brief: as §1
# Fuc(a1-2)Gal6S(b1-4)Glc = molecular target: Fuc(a1-2)Gal6S(b1-4)Glc
# Method in brief: as §1
# [18] = molecular target: Fuc(a1-2)Gal6S(b1-4)Glc6S
# Method in brief: as §1
# Fuc(a1-2)[Gal(a1-3)]Gal = molecular target: Fuc(a1-2)[Gal(a1-3)]Gal
# Method in brief: as §1
# [19] = molecular target: Fuc(a1-2)[Gal(a1-3)]Gal(b1-3)GalNAc
# Method in brief: as §1
# [20] = molecular target: Fuc(a1-2)[Gal(a1-3)]Gal(b1-3)GalNAc(b1-3)Gal(a1-4)Gal(b1-4)Glc
# Method in brief: as §1
# [21] = molecular target: Fuc(a1-2)[Gal(a1-3)]Gal(b1-3)GlcNAc
# Method in brief: as §1
# [22] = molecular target: Fuc(a1-2)[Gal(a1-3)]Gal(b1-3)GlcNAc(b1-2)Man(a1-3)[Fuc(a1-2)[Gal(a1-3)]Gal(b1-3)GlcNAc(b1-2)Man(a1-6)]Man(b1-4)GlcNAc(b1-4)GlcNAc
# Method in brief: as §1
# [23] = molecular target: Fuc(a1-2)[Gal(a1-3)]Gal(b1-3)GlcNAc(b1-2)Man(a1-3)[Fuc(a1-2)[Gal(a1-3)]Gal(b1-3)GlcNAc(b1-2)Man(a1-6)]Man(b1-4)GlcNAc(b1-4)[Fuc(a1-6)]GlcNAc
# Method in brief: as §1
# [24] = molecular target: Fuc(a1-2)[Gal(a1-3)]Gal(b1-3)GlcNAc(b1-3)GalNAc
# Method in brief: as §1
# [25] = molecular target: Fuc(a1-2)[Gal(a1-3)]Gal(b1-3)GlcNAc(b1-6)GalNAc
# Method in brief: as §1
# [26] = molecular target: Fuc(a1-2)[Gal(a1-3)]Gal(b1-4)Glc
# Method in brief: as §1
# [27] = molecular target: Fuc(a1-2)[Gal(a1-3)]Gal(b1-4)GlcNAc
# Method in brief: as §1
# [28] = molecular target: Fuc(a1-2)[Gal(a1-3)]Gal(b1-4)GlcNAc(b1-2)Man
# Method in brief: as §1
# [29] = molecular target: Fuc(a1-2)[Gal(a1-3)]Gal(b1-4)GlcNAc(b1-2)Man(a1-3)[Fuc(a1-2)[Gal(a1-3)]Gal(b1-4)GlcNAc(b1-2)Man(a1-6)]Man(b1-4)GlcNAc(b1-4)GlcNAc
# Method in brief: as §1
# [30] = molecular target: Fuc(a1-2)[Gal(a1-3)]Gal(b1-4)GlcNAc(b1-2)Man(a1-3)[Fuc(a1-2)[Gal(a1-3)]Gal(b1-4)GlcNAc(b1-2)Man(a1-6)]Man(b1-4)GlcNAc(b1-4)[Fuc(a1-6)]GlcNAc
# Method in brief: as §1
# [31] = molecular target: Fuc(a1-2)[Gal(a1-3)]Gal(b1-4)GlcNAc(b1-3)GalNAc
# Method in brief: as §1
# [32] = molecular target: Fuc(a1-2)[Gal(a1-3)]Gal(b1-4)GlcNAc(b1-3)[Fuc(a1-2)[Gal(a1-3)]Gal(b1-4)GlcNAc(b1-6)]GalNAc
# Method in brief: as §1
# [33] = molecular target: Fuc(a1-2)[Gal(a1-3)]Gal(b1-4)GlcNAc(b1-6)GalNAc
# Method in brief: as §1
# [34] = molecular target: Fuc(a1-2)[Gal(a1-3)]Gal(b1-4)[Fuc(a1-3)]Glc
# Method in brief: as §1
# [35] = molecular target: Fuc(a1-2)[Gal(a1-3)]Gal(b1-4)[Fuc(a1-3)]GlcNAc
# Method in brief: as §1
# [36] = molecular target: Fuc(a1-2)[Gal(a1-3)]Gal(b1-4)[Fuc(a1-3)]GlcNAc(b1-3)GalNAc
# Method in brief: as §1
# [37] = molecular target: Fuc(a1-2)[Gal(a1-4)]Gal(b1-4)GlcNAc
# Method in brief: as §1
# [38] = molecular target: Fuc(a1-2)[GalNAc(a1-3)]Gal
# Method in brief: as §1
# [39] = molecular target: Fuc(a1-2)[GalNAc(a1-3)]Gal(b1-3)GalNAc(a1-3)[Fuc(a1-2)]Gal(b1-4)GlcNAc
# Method in brief: as §1
# [40] = molecular target: Fuc(a1-2)[GalNAc(a1-3)]Gal(b1-3)GalNAc(b1-3)Gal(a1-4)Gal(b1-4)Glc
# Method in brief: as §1
# [41] = molecular target: Fuc(a1-2)[GalNAc(a1-3)]Gal(b1-3)GlcNAc
# Method in brief: as §1
# [42] = molecular target: Fuc(a1-2)[GalNAc(a1-3)]Gal(b1-3)GlcNAc(b1-2)Man(a1-3)[Fuc(a1-2)[GalNAc(a1-3)]Gal(b1-3)GlcNAc(b1-2)Man(a1-6)]Man(b1-4)GlcNAc(b1-4)GlcNAc
# Method in brief: as §1
# [43] = molecular target: Fuc(a1-2)[GalNAc(a1-3)]Gal(b1-3)GlcNAc(b1-2)Man(a1-3)[Fuc(a1-2)[GalNAc(a1-3)]Gal(b1-3)GlcNAc(b1-2)Man(a1-6)]Man(b1-4)GlcNAc(b1-4)[Fuc(a1-6)]GlcNAc
# Method in brief: as §1
binder,measurement,setting,value
B1,glycan array binding signal (z-score),[1],0.716
same,glycan array binding signal (z-score),[2],1.39
same,glycan array binding signal (z-score),[3],1.05
same,glycan array binding signal (z-score),[4],-0.074
same,glycan array binding signal (z-score),[5],-0.937
same,glycan array binding signal (z-score),[6],-2.82
same,glycan array binding signal (z-score),[7],0.433
same,glycan array binding signal (z-score),[8],-0.508
same,glycan array binding signal (z-score),[9],0
same,glycan array binding signal (z-score),[10],0.821
same,glycan array binding signal (z-score),[11],-1.44
same,glycan array binding signal (z-score),[12],-1.71
same,glycan array binding signal (z-score),[13],-0.208
same,glycan array binding signal (z-score),[14],0.053
same,glycan array binding signal (z-score),[15],-0.403
same,glycan array binding signal (z-score),[16],-0.54
same,glycan array binding signal (z-score),[17],-0.991
same,glycan array binding signal (z-score),Fuc(a1-2)Gal6S(b1-4)Glc,0.931
same,glycan array binding signal (z-score),[18],0.533
same,glycan array binding signal (z-score),Fuc(a1-2)[Gal(a1-3)]Gal,-0.204
same,glycan array binding signal (z-score),[19],-1.09
same,glycan array binding signal (z-score),[20],-0.181
same,glycan array binding signal (z-score),[21],-0.692
same,glycan array binding signal (z-score),[22],0.289
same,glycan array binding signal (z-score),[23],-1.25
same,glycan array binding signal (z-score),[24],1.31
same,glycan array binding signal (z-score),[25],-0.319
same,glycan array binding signal (z-score),[26],-0.294
same,glycan array binding signal (z-score),[27],-0.538
same,glycan array binding signal (z-score),[28],-0.157
same,glycan array binding signal (z-score),[29],1.79
same,glycan array binding signal (z-score),[30],-0.545
same,glycan array binding signal (z-score),[31],0.594
same,glycan array binding signal (z-score),[32],0.188
same,glycan array binding signal (z-score),[33],-0.303
same,glycan array binding signal (z-score),[34],-0.571
same,glycan array binding signal (z-score),[35],0.53
same,glycan array binding signal (z-score),[36],-2.12
same,glycan array binding signal (z-score),[37],-0.413
same,glycan array binding signal (z-score),[38],0.408
same,glycan array binding signal (z-score),[39],-0.618
same,glycan array binding signal (z-score),[40],0.098
same,glycan array binding signal (z-score),[41],-0.316
same,glycan array binding signal (z-score),[42],-1.06
same,glycan array binding signal (z-score),[43],0.833

# Looked up one by one from the list above (2):
binder,measurement,setting,value
B1,glycan array binding signal (z-score),[18],0.533
same,glycan array binding signal (z-score),[37],-0.413
